Measurements reported in US5767078A, “Agonist peptide dimers” (priority 1995, dated 1998).
Part of at least one peptide drawing is inferred or uncertain, most often the ends. Bridge positions count the residues as written; N and C are the ends. Peptide text beside a SMILES is read from it.

Test system: BDF1 mice
Experiment: Polycythemic exhypoxic mouse bioassay ([59Fe] incorporation into nascent red blood cells)
Assay type: in vivo
Conditions: assay not given
Procedure: Peptides were assayed for in vivo activity in the polycythemic mouse bioassay adapted from the method described by Cotes and Bangham (1961), Nature 191: 1065-1067. BDF1 mice were allowed to acclimate to ambient conditions for 7-10 days. Body weights were determined for all animals. Low weight animals (<15 grams) were not used. Mice were introduced to hypobaric chambers with a 24 hour conditioning cycle consisting of 0.40% +/-0.02 atm. for 18 hours followed by 6 hours at ambient pressure for a total of 14 days. Following the 14 day period, mice were placed in ambient pressure for 72 hours prior to dosing. […] Peptide sample stock solutions (excluding peptide dimers) were first solubilized in dimethyl sulfoxide (DMSO). Control groups included one group of vehicle alone, and one group of (DMSO) at final concentration of 1%.
Each dose group contained 10 mice. Mice were injected subcutaneously (scruff of neck) with 0.5 ml of the appropriate sample. […]
Mouse body weights were determined twenty four hours following [^59 Fe] administration and the mice were sacrificed forty eight hours following the [^59 Fe] injection. Blood was collected from each animal by cardiac puncture and hematocrits were determined (heparin was used as the anticoagulant). Each blood sample (0.2 ml) was analyzed for [^59 Fe] incorporation using a Packard gamma counter. […]

CC(C)C[C@@H]1NC(=O)[C@@H]2CCCN2C(=O)CNC(=O)[C@H](Cc2ccccc2)NC(=O)[C@H](Cc2c[nH]cn2)NC(=O)[C@@H](NC(=O)[C@H](CO)NC(=O)[C@H](Cc2ccc(O)cc2)NC(=O)[C@@H](NC(=O)CNC(=O)CN)[C@@H](C)O)CSSC[C@@H](C(=O)N[C@@H](CCCCN)C(=O)N2CCC[C@H]2C(=O)N[C@@H](CCC(N)=O)C(N)=O)NC(=O)[C@H](C(C)C)NC(=O)[C@H](Cc2c[nH]c3ccccc23)NC(=O)[C@H]([C@@H](C)O)NC1=O [Seq. I. D. No. 13] (H-GGTYSCHFGPLTWVCKPQ-NH2; disulfide 6-15)
in vivo bioactivity (in words): improved in vivo bioactivity
